{"source": "paper PMC8573869", "molecular_target": "T1, FLAG-tagged dominant-active Rab32Q85L (UniProt Q13637)", "T1 sequence": "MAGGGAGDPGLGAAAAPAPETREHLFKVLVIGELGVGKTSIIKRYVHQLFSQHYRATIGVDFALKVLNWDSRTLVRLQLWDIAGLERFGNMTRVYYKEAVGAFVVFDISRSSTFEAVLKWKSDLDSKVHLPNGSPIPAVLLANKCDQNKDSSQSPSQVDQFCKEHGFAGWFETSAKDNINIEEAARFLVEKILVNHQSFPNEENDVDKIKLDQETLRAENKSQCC", "assay": "co-IP; MCF7 cells transfected for 48 h with FLAG-tagged Rab32 constructs; crosslinked with 2 mM DSP 30 min at room temperature, lysed in Chaps buffer (150 mM NaCl, 10 mM Tris pH 7.4, 1 mM EDTA, 1% Chaps); anti-FLAG precipitation on Protein A Sepharose; blot for the endogenous partner", "note": "Results are given in words; binding and its absence hold for the method and conditions named. Binding seen in cells or lysates may run through a third protein. Where a sequence is shown, tags or fusion partners need not be part of it.", "data": [{"substance": "endogenous short reticulon-3 (RTN3S) (human (endogenous in MCF7))", "values": [{"measurement": "binding", "value": "no binding"}]}]}
